This is one part of the list. Shown are side measurements of this screen, not its main read-out; they come without a call. Compounds called inactive in the main read-out are mostly missing here. Words in brackets tell the shape of the fitted curve; partial curves, single points and poor fits give uncertain potencies.

As a reminder, the AC50 is the concentration giving half of the maximal activity seen.

A short description of this experiment: IkB Signaling. To be noted: ABC-DLBCL IkBa-CBG/CBR dual luciferase ratio (green luciferase fused to IkBa over red control in OCI-Ly3 lymphoma cells), 4 h. Put shortly:
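Luminescence ratio of IκBα-fused green versus native red beetle luciferase in OCI-Ly3 cells, 4 h post-doxycycline with compound; red signal alone, scaled from basal (0%) to zero light (-100%), flagged nonspecific or cytotoxic effects.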

Where [1] appears, read: measured here: control luc red channel unless noted.

Take `CCOc1ccc(-c2nc(SCC(=O)Nc3ccc4c(c3)OCCO4)c(-c3ccc(F)cc3)[nH]2)cc1`: the AC50 under setting [1] is 1 µM [falling, full curve, poor fit]. The same measure, in the same setting: for `CCc1cccc(-n2nnc(-c3nc(-c4cccs4)no3)c2N)c1` the value was 1.26 µM [rising, full curve]; for `COc1cccc(OC)c1C(=O)Nc1cccc(-c2nc3cc(C)cc(C)c3o2)c1`, 10 µM [falling, partial curve]. Regarding `COc1ccc(NC(=O)c2noc3c2CSc2ccccc2-3)cc1Cl`, the AC50 under setting [1] was 25.1 µM [falling, single point]. Still for that read-out and setting: for `O=C(Cn1nc(Cc2cccnc2)c2ccccc2c1=O)Nc1cccc(C(F)(F)F)c1` the value was 39.8 µM [falling, single point]. Same read-out and setting: to `Cc1ccc(NC(=O)Cn2c(C)cc(C)c(C#N)c2=O)cc1F` belongs 39.8 µM [falling, single point]. Turning to `COc1cccc2sc(Nc3nnc(-c4cccs4)o3)nc12`, the AC50 runs as follows: (measured here: IkB-luc green channel) 39.8 µM [rising, partial curve]; (measured here: control luc red channel) 31.6 µM [falling, partial curve]. As for `COc1ccc(-c2nc3ccccc3s2)cc1NC(=O)c1cc2ccccc2o1`, the AC50 under setting [1] was 0.398 µM [rising, full curve]. As for `Cn1c(CCN2CCCCC2)nc2cc(NS(=O)(=O)c3ccc(Cl)cc3)ccc21`, the AC50 under setting [1] is 15.8 µM [falling, partial curve]. The same measure, in the same setting: to `Cc1ccc(NC(=O)CCNS(=O)(=O)c2cccc3nsnc23)cc1` belongs 25.1 µM [falling, partial curve, poor fit].

As for `CC1C=CCC2C(=O)N(c3cccc(C(=O)N4CCN(c5ccc(F)cc5)CC4)c3)C(=O)C12` (stereo not drawn), the half-maximal activity concentration (AC50) under setting [1] was 25.1 µM [falling, single point]. Consider `CN(CC(=O)Nc1ccc(F)cc1F)S(=O)(=O)c1ccc(C(=O)N2CCOCC2)s1`, for which the AC50 under setting [1] is 15.8 µM [falling, partial curve]. On the same count and under the same terms, for `Cc1ccc2nc(CSc3nnc(NC(=O)COc4ccccc4)s3)cc(=O)n2c1` the value was 2 µM [falling, partial curve]. Take `CCOC(=O)c1ccc(NC(=O)c2cc(=O)c3cc(CC)ccc3o2)cc1`: under setting [1], the AC50 is 3.98 µM [rising, full curve]. The same measure, in the same setting: for `NC(=O)c1c(NC(=O)CSc2nnc(Cc3ccccc3)n2Cc2ccco2)sc2c1CCC2` the value was 2.51 µM [falling, full curve]; for `COc1cccc(CNC(=O)C(NS(=O)(=O)c2ccc3nc(C)sc3c2)C(C)C)c1` (stereo not drawn), 15.8 µM [falling, partial curve, poor fit].

Regarding `Fc1ccc([C@H]2CCNC[C@H]2COc2ccc3c(c2)OCO3)cc1`, the AC50 under setting [1] was 39.8 µM [falling, partial curve].

Source of the values: PubChem BioAssay AID445 (National Center for Advancing Translational Sciences (NCATS), 2006).
